In publication PMC12548662:
No constants are given. Whether binding was seen depends on the method and setting. In cells and extracts the contact can be indirect. These calls come from enrichment with a bait or labelling near it, and not all partners need be listed. Sequences can lack the tags named with a protein.

Amino acid sequences for entries named in this document (tags omitted). A change or cut given only in a name is not applied to a line headed by its entry. Chains listed by the source or under a name are the forms on record and can include a tag or linker. Residues count along the entry.
UniProt Q15365: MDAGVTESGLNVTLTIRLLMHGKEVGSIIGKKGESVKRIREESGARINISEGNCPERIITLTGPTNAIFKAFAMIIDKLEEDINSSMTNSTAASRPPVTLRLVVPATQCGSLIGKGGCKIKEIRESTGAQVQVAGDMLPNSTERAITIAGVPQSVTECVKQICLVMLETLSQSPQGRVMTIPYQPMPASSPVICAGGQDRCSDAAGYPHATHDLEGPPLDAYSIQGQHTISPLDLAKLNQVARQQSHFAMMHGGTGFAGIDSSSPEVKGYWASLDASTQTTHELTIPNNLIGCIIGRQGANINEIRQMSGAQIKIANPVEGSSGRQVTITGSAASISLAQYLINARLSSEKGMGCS
UniProt P61163: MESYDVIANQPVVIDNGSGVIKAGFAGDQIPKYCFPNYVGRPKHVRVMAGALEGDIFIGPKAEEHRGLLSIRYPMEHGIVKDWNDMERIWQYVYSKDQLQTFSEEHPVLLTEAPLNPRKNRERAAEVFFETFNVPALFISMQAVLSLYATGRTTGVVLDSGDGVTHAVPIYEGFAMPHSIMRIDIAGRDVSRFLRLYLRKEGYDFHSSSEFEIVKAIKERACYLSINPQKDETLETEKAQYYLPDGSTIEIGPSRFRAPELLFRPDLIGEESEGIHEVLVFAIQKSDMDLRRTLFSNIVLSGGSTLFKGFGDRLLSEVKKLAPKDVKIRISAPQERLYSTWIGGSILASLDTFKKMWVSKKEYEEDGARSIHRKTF
poly rC binding protein 2 isoform c (Q15366-4, form named): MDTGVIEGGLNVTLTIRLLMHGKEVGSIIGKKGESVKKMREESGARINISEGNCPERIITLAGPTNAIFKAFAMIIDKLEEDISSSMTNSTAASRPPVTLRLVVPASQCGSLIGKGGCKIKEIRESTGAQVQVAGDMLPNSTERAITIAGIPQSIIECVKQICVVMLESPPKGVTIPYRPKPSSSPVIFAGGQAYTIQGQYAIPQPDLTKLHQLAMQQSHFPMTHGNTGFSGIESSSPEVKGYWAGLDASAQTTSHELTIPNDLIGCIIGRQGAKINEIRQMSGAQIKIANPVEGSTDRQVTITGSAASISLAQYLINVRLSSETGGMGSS
ras responsive element binding protein 1 isoform 1 (Q92766-2, form named): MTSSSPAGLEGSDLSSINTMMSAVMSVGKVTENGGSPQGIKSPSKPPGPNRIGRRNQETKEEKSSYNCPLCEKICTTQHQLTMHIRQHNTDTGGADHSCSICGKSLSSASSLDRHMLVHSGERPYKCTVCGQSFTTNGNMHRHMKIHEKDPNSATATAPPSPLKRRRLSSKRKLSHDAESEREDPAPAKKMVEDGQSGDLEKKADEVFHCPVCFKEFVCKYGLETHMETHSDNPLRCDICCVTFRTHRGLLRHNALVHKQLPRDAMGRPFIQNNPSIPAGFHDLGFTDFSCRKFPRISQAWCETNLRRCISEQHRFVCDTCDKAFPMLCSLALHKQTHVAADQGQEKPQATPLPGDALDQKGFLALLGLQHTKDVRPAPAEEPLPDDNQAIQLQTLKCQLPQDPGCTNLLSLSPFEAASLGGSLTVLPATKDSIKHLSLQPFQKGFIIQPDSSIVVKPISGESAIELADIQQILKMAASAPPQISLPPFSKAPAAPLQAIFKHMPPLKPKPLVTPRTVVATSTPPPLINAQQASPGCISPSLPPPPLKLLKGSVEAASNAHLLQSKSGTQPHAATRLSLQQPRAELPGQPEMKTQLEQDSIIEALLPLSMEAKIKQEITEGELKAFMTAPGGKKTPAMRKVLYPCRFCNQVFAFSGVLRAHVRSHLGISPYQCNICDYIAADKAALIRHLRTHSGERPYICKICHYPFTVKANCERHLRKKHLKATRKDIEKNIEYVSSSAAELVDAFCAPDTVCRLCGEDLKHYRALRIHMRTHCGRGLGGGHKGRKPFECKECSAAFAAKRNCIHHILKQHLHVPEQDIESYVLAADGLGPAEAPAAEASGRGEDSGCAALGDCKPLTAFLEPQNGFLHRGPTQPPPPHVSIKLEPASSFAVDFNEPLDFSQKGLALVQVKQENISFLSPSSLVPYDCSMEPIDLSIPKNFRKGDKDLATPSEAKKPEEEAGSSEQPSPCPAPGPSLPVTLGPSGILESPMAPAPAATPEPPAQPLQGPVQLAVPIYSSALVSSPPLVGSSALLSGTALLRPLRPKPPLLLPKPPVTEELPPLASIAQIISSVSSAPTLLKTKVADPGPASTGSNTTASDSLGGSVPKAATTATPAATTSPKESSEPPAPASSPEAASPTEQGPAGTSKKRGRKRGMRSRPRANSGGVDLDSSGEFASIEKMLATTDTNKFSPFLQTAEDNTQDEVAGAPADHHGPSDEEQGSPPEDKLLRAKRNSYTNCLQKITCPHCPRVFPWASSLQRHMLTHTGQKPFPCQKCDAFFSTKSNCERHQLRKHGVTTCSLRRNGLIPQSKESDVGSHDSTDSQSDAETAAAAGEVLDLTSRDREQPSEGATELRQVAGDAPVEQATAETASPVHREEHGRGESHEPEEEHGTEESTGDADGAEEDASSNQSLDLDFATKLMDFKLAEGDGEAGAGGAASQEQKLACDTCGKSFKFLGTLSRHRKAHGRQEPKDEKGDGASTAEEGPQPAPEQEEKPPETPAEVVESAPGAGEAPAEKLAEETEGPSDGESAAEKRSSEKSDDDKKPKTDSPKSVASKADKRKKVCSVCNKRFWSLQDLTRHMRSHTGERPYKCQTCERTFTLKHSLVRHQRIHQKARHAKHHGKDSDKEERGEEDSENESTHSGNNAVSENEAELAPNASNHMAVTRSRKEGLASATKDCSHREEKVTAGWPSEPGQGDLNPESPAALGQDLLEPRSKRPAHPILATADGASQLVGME
UniProt P25705, residues 44-553: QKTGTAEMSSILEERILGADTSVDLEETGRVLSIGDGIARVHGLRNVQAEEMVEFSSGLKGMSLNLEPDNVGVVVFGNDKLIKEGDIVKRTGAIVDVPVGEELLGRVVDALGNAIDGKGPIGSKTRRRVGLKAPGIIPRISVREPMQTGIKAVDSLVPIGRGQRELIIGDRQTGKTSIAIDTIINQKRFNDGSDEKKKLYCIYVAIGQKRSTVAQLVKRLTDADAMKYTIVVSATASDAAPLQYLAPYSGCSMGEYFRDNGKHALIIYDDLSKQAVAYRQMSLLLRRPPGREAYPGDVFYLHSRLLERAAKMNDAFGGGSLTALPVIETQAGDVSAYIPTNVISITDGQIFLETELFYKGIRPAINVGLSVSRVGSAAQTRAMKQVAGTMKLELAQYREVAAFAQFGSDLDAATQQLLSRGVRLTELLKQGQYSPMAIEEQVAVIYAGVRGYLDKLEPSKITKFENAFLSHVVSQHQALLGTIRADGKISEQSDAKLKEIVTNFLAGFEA
UniProt P08238: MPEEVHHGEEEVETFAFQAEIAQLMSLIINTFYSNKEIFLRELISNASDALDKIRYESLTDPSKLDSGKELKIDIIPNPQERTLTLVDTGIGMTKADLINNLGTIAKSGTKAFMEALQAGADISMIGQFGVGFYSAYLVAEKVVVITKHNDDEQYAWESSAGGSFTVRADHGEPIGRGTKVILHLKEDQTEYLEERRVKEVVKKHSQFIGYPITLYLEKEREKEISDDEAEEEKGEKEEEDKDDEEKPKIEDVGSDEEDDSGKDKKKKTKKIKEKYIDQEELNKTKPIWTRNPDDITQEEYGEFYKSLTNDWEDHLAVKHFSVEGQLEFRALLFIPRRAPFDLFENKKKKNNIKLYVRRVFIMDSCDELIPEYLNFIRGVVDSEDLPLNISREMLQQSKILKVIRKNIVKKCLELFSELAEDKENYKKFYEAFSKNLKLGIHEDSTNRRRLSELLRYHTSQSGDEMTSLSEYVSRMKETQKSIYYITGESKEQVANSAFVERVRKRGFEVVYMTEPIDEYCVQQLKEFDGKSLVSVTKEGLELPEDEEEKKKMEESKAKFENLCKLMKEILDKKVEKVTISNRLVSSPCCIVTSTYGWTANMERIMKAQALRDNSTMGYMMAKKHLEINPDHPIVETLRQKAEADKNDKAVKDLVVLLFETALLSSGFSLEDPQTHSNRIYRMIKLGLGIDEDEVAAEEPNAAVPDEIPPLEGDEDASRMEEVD
exportin 2 isoform 2 (P55060-4, form named): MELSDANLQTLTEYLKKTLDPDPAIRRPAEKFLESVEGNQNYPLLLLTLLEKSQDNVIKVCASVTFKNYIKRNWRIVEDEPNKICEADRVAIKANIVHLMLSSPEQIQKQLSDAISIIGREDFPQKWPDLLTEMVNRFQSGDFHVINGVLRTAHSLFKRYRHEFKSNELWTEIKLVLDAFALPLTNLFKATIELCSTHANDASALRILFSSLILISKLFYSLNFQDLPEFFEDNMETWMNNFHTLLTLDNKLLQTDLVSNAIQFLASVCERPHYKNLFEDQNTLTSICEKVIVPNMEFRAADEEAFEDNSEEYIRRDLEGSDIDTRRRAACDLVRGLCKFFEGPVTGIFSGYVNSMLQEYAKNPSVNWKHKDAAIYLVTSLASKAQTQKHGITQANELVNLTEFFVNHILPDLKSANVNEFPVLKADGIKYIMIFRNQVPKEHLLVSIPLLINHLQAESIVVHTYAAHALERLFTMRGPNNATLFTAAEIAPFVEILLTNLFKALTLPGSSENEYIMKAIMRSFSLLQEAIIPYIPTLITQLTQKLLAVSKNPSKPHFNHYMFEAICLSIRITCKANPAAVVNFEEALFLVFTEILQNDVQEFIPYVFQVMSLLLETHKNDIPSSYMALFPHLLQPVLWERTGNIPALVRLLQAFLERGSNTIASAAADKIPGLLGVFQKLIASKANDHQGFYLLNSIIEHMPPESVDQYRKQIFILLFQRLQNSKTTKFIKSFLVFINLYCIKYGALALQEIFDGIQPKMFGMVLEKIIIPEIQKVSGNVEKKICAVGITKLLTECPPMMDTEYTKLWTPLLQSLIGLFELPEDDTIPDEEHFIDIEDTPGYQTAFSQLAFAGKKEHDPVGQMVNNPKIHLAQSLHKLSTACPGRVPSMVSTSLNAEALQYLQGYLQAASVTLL

Target: T1, SETD3 fused to the TurboID biotin ligase at either the N- or the C-terminus (human) (UniProt Q86TU7)
T1 sequence: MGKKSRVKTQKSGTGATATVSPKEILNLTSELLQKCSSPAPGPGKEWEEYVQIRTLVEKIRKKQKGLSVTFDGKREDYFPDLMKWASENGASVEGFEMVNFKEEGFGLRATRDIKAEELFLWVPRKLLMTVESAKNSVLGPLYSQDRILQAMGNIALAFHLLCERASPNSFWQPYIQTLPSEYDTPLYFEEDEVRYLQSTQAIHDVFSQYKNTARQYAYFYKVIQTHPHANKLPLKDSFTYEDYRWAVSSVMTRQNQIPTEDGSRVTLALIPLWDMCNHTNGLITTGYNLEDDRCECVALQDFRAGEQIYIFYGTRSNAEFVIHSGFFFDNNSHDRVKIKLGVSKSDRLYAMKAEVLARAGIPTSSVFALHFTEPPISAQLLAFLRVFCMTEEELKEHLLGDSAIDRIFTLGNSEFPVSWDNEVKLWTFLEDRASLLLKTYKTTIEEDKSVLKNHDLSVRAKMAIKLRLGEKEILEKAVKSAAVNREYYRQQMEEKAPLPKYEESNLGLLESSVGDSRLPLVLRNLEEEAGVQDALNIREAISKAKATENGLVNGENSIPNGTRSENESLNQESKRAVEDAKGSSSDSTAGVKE
Assay: proximity labelling; SETD3 fused to TurboID at the N- or C-terminus, both constructs co-transfected in HEK293T SETD3 KO cells for 48 h; 30 min with 50 µM biotin or PBS; biotinylated proteins enriched on streptavidin magnetic beads, on-bead trypsin digestion, nano-UPLC Q-TOF MS/MS

Row | Substance | binding
1 | poly rC binding protein 1 (from UniProt Q15365 1-356) | binds
2 | spliceosome RNA helicase DDX39B (from UniProt Q13838-1 1-428) | binds
3 | alpha centractin (endogenous) (from UniProt P61163 1-376) | binds
4 | poly rC binding protein 2 isoform c (from UniProt Q15366-4 1-331) | binds
5 | eukaryotic initiation factor 4A I isoform 1 (from UniProt P60842-1 1-406) | binds
6 | ras responsive element binding protein 1 isoform 1 (from UniProt Q92766-2 1-1742) | binds
7 | ATP synthase subunit alpha mitochondrial (from UniProt P25705-1 44-553) | binds
8 | heat shock protein HSP 90 beta isoform a (from UniProt P08238 1-724) | binds
9 | exportin 2 isoform 2 (from UniProt P55060-4 1-915) | binds
